Test results reported in publication PMC11095456.
No constants are given. Whether binding was seen depends on the method and setting. Some binding calls cover weakened binding; strength is not graded here.

Target: T1, ZEB2 MAPPIT construct (UniProt O60315)
T1 sequence: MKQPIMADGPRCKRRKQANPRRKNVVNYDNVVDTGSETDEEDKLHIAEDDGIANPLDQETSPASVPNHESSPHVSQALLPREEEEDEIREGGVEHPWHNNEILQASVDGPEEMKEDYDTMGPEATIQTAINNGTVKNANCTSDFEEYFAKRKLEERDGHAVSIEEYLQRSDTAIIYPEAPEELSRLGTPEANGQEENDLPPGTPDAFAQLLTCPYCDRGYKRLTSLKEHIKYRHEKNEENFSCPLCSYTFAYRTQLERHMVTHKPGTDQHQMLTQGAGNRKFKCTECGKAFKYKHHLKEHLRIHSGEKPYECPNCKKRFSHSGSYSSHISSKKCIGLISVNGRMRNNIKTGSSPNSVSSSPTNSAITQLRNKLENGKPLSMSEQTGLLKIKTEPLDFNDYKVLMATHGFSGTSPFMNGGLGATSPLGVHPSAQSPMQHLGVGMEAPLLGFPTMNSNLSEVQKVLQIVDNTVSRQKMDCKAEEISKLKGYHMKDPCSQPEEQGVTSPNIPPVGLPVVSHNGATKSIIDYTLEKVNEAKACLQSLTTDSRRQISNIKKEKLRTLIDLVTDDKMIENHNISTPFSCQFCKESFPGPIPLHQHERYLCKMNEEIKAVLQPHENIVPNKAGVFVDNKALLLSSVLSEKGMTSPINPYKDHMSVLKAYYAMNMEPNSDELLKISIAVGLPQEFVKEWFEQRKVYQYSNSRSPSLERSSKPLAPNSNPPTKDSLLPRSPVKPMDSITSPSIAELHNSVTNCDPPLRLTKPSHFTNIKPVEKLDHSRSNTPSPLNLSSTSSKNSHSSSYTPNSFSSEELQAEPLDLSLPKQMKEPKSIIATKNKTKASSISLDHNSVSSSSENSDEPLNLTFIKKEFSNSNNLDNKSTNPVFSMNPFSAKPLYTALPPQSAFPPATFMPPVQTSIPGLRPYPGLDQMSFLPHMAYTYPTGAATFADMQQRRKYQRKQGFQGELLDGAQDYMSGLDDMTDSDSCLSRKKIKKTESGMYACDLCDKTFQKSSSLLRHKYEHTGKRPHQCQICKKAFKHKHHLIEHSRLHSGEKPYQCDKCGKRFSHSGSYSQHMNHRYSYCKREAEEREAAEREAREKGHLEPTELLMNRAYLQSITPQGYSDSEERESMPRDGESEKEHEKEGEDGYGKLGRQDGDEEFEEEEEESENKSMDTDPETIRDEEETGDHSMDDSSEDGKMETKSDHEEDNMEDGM
Assay: two-hybrid; MAPPIT in HEK293T as in a6, with the 4× PLDLS inhibitor or the 4× PLASS control expressed as competitor

Substance: CTBP2 MAPPIT prey, wild type (from UniProt P56545 1-445)
- binding: binds
